Results: PubChem BioAssay AID624133 (Broad Institute, 2012)
Out of some 1,600 compounds screened, about 1,300 (81%) were called active. No rule for the calls is given here. The set was probably picked from earlier hits. The list shows a part of the results, in another mix than the full data. Potency and affinity values are given separately.

Assay: control 3'UTR Renilla luciferase suppression, dose response, counter-screen for Shn3 inhibitor project, cell-based, Clone20-Shn3RL, cherry-picked (AID 624133);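 also: 0% = neutral control wells and -100% = positive control wells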
Conditions: Clone20-Shn3RL cells, Renilla luciferase luminescence, 24 h; at 35 µM (top of the series)

SMILES | activity change, negative = inhibition [%]
COC(=O)C1=C(c2ccc(-c3ccccc3)c(F)c2)C[C@@H]2CC[C@H]1N2C(=O)N1CCCC1 | -62.5
CCN1C[C@]2(COC)CC[C@H](OC)[C@@]34C1[C@]1(OCO[C@@]15C[C@H](OC)[C@H]1C[C@@H]3[C@@H]5[C@H]1OC)[C@@H](O)[C@H]24 | 50
C[C@H]1CCC/C=C/[C@@H]2C[C@H](O)C[C@H]2[C@H](O)/C=C/C(=O)O1 | 5.56
C=C1C(=O)O[C@H]2[C@H]1[C@H](OC(=O)CC(=O)O[C@@H]1C[C@@H](C)[C@@H]3C=CC(=O)[C@@]3(C)[C@H]3OC(=O)C(=C)[C@H]13)C[C@@H](C)[C@H]1C=CC(=O)[C@]12C | -112
CC(=O)O[C@H]1CCC2C3CC[C@H]4[C@@H](O)[C@H](O)CC[C@]4(C)C3CC[C@@]21C (stereo partly drawn) | 46.7
C[C@]12CCC3C(CC[C@H]4C[C@H](O)CC[C@]34C)C1CCC2=O (stereo partly drawn) | 70.8
CCOC(=O)C1C(=O)NC2(C)CC1c1cc(OC)ccc1O2 (stereo not drawn) | 25
COc1cccc2c1O[C@H]1C(=O)CC[C@H]3CN(C)CCC231 (stereo partly drawn) | 25
